The values that follow come from publication PMC7819943, “Rice protein-binding microarrays: a tool to detect cis-acting elements near promoter regions in rice”.

The list shows a part of the results.

The assay concerns the target T1, OsSMF1 (Oryza sativa, UniProt Q6ZLB0 1-436).
T1 sequence: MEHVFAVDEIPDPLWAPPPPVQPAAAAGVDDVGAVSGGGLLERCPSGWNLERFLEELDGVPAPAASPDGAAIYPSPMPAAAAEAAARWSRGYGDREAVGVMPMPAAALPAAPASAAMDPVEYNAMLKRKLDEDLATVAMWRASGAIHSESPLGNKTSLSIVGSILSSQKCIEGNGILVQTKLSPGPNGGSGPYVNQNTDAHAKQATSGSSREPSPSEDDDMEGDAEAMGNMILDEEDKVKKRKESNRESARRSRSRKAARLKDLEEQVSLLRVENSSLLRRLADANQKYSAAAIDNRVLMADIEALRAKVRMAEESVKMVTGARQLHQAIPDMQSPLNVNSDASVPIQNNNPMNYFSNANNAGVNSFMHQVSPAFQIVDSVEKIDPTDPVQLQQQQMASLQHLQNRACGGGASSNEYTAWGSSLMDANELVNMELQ
Briefly: protein-binding microarray (RPBM); PBS, 2% BSA, 51.3 ng/ul salmon testes DNA, 50 uM zinc acetate, 200 nM TF, 25 C, 1 h; high values mean tight binding. As to conditions: protein: recombinant; tags: N-terminal polyhistidine and DsRed monomer fusion (pET32a); chain copies: 2; label: CyDye5-dUTP incorporated in the synthesized complementary strand; 3' TTTTT single-stranded linker to array surface; dsDNA, one strand shown. The method, boiled down: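 Transcription factors were each fused at the N-terminus to a polyhistidine tag plus DsRed and expressed in E. coli BL21-CodonPlus before Ni–NTA purification. Binding to a double-stranded custom Agilent array was carried out with 200 nM protein at 25 °C for 1 h in PBS, 2% BSA, salmon testes DNA and 50 µM zinc acetate. The binding signal is per-feature fluorescence intensity, in arbitrary units, on an Axon 4000B scanner.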
Turning to “GTTACATTTGGCGTACCACACAACTCACTGTCAGCCCCGTCGGAGTCACCTAGTGCAG”, the binding signal is 3440 fluorescence intensity (a.u.). Take “GGCATTTGGACTTGGCTGCTTTGCAGCATGACAGGGCAAACGGAGTCACCTAGTGCAG”: the binding signal is 7570 fluorescence intensity (a.u.). With “CATATTTGTTTTAGGTGTCTAGCTTGGCTTGGTACGTGCTCGGAGTCACCTAGTGCAG”, the binding signal was 3200 fluorescence intensity (a.u.). Turning to “CAGCTCCGCCCCGTCGCCGACGTGCTTCTCCATGTACCCGCGGAGTCACCTAGTGCAG”, the binding signal was 3800 fluorescence intensity (a.u.).

As to “CCTAGTTCGGCTGGAGTTTCATCAAGGCTGACTGGACCACCGGAGTCACCTAGTGCAG”, the binding signal was 4900 fluorescence intensity (a.u.). In the case of “TGTTTTGTCTGAATTTCTGAATGCAGCTGAGGCAGAAATCCGGAGTCACCTAGTGCAG” it was 23800 fluorescence intensity (a.u.). On to “AAGCCGACGCACCAGGCTCTGGCTCGTCCCGGATAAGATACGGAGTCACCTAGTGCAG”, for which the binding signal is 3500 fluorescence intensity (a.u.). As to “AACAGCAGAAAGCAGGGAGCGGAAAGCCCACCACCTTCCTCGGAGTCACCTAGTGCAG”, the binding signal was 21300 fluorescence intensity (a.u.). For “TACTTTTGGTTATATATATCCTTCGTGGATGTAAAGATTGCGGAGTCACCTAGTGCAG”, the binding signal is 3270 fluorescence intensity (a.u.). Consider “GGAGGAGAGACACAGGAGCAAACAATCAAGCGTGTCAGGTCGGAGTCACCTAGTGCAG”, for which the binding signal was 4030 fluorescence intensity (a.u.). For the sequence “GTCGCGCCACGCCTTGCAGACGCAGCGGCACGCCGCGAGCCGGAGTCACCTAGTGCAG”, the binding signal was 4270 fluorescence intensity (a.u.). On to “ACTGCCTTACCTGTTCATCTTCCAAACTGATTTGGTTTGTCGGAGTCACCTAGTGCAG”, for which the binding signal is 3190 fluorescence intensity (a.u.). Take “TTGGTGTACAACAGTAACAGGTCACTGCCACCCATTAGAACGGAGTCACCTAGTGCAG”: the binding signal is 3440 fluorescence intensity (a.u.). “TCAAAATGTATGATGTCATTGACTTTTCACGTAACGTTTGCGGAGTCACCTAGTGCAG”: the binding signal was 9940 fluorescence intensity (a.u.).

Regarding “GGGCCCCGGCCCCATCTGATATCTACGATGCAACGTACGACGGAGTCACCTAGTGCAG”, the binding signal was 4190 fluorescence intensity (a.u.). Turning to “TACCACACGTATCAAATCTAGTACCACCTACAATACCGTGCGGAGTCACCTAGTGCAG”, the binding signal was 3360 fluorescence intensity (a.u.). In the case of “GAATCTACATTAGTATGAGCGGTGTCAGGCGACACCAACGCGGAGTCACCTAGTGCAG” it was 3450 fluorescence intensity (a.u.).

On to “AACCGTGGTCCAAACAGGGCATATACGTGGATTTTGATACCGGAGTCACCTAGTGCAG”, for which the binding signal is 3660 fluorescence intensity (a.u.). On to “TACAGGAGTCATGCAGTGCATGCACGCGAAGCTGTCGTCGCGGAGTCACCTAGTGCAG”, for which the binding signal was 3250 fluorescence intensity (a.u.).

For the sequence “CTTATCATTTGCAGAGTAAATGGCACATTAAATTCTTTGGCGGAGTCACCTAGTGCAG”, the binding signal is 22200 fluorescence intensity (a.u.). Turning to “TTATGTGGTTGCATGCCAGATTTACGGTCAGCAGAAAGCTCGGAGTCACCTAGTGCAG”, the binding signal is 6140 fluorescence intensity (a.u.). As for “GATTCAATCAAACAGTTATTCCTGTGTTTTGCAATTCTCTCGGAGTCACCTAGTGCAG”, the figure is 3610 fluorescence intensity (a.u.); as for “CTCCCTCCCACCCGCCGCGTCGTCAGTTTTAACGCGCACCCGGAGTCACCTAGTGCAG”, 4540 fluorescence intensity (a.u.). In the case of “CTCCTCTTTTCCTCCTGGTCTTCGTCTTCCTCAAGCCATGCGGAGTCACCTAGTGCAG”, the binding signal was 3170 fluorescence intensity (a.u.). For the sequence “CACGAGACGAATCTTTTAAGCCTAATTGCGTCATGATTTGCGGAGTCACCTAGTGCAG”, the binding signal is 6280 fluorescence intensity (a.u.).

“TATAAATTTGGACACATATATGAAACACATATATTGATCCCGGAGTCACCTAGTGCAG”: the binding signal was 30400 fluorescence intensity (a.u.). As for “TGTGCGGTGTGTTGACGAAATTCACTGACAGGGGAGCATGCGGAGTCACCTAGTGCAG”, the figure is 3190 fluorescence intensity (a.u.); as for “AGTACTTACGTCAGATTTTCCTTCCTTTTCCATTGTACGTCGGAGTCACCTAGTGCAG”, 10100 fluorescence intensity (a.u.). As for “AGAAACGTCCTTTCCTATCCGGCACAGTGCGCGAAAGGGCCGGAGTCACCTAGTGCAG”, the figure is 23400 fluorescence intensity (a.u.). In the case of “CTCCTTTCGTAGGAATCCAGGCCCGCTGACCGCGTCATGCCGGAGTCACCTAGTGCAG” it was 3430 fluorescence intensity (a.u.).

“GTTTTGGATAGCTTAGTGGCGTCATCCTGTTTTCTCTATACGGAGTCACCTAGTGCAG”: the binding signal was 3770 fluorescence intensity (a.u.).

Consider “GACCCTACGTGGCGGCTGAATCGGCATGGGACCCACGTGGCGGAGTCACCTAGTGCAG”, for which the binding signal was 15600 fluorescence intensity (a.u.). As for “CGTGGGCGCGACACACGTCTCAAGGCTGTGTCTGTACGTCCGGAGTCACCTAGTGCAG”, the figure is 3140 fluorescence intensity (a.u.); as for “GGATGATGTGACTTAATAACAGAAGAGAGAAATAATATTACGGAGTCACCTAGTGCAG”, 40600 fluorescence intensity (a.u.); as for “ATTTAACTATCTGTCACTTTTACATGTGGCATCACTTAACCGGAGTCACCTAGTGCAG”, 5130 fluorescence intensity (a.u.). Regarding “TGTAAGCAGGAAGCCTACGTGGCAACTTTACGGCGCAACGCGGAGTCACCTAGTGCAG”, the binding signal was 9490 fluorescence intensity (a.u.). In the case of “CTATCTCGCCGAGTCGCCAGTCACCGCCTCGACGCCGGTCCGGAGTCACCTAGTGCAG” it was 3160 fluorescence intensity (a.u.).

With “TTGTGATCCTAGCCTGCAACATATGTAGTATTCCTATCCTCGGAGTCACCTAGTGCAG”, the binding signal is 4790 fluorescence intensity (a.u.).

Consider “ATTCATCATAACAATATAAAGATTTGTTTCAGATTAGTCCCGGAGTCACCTAGTGCAG”, for which the binding signal is 31100 fluorescence intensity (a.u.).

“GGTTTGCCGATCTTAGCTACATCATTGCTTCCACCTTTGCCGGAGTCACCTAGTGCAG”: the binding signal was 4600 fluorescence intensity (a.u.). With “TCTCTCTAGAAAGTTACTGGGTGACACCACACAGAACCCCCGGAGTCACCTAGTGCAG”, the binding signal is 5210 fluorescence intensity (a.u.). On to “ATGATTTATAAGAATATAATTCGGACTTGACGTCAAGATGCGGAGTCACCTAGTGCAG”, for which the binding signal was 3860 fluorescence intensity (a.u.).

Take “GATGGTCACTAGTCACCACGTACGCGAAATTTCCAAGCTCCGGAGTCACCTAGTGCAG”: the binding signal was 5820 fluorescence intensity (a.u.). With “TACTCGGATTAATTGCTTAGAGAGTACATGTAGACTATTGCGGAGTCACCTAGTGCAG”, the binding signal is 35600 fluorescence intensity (a.u.). As for “GTCATGCTAGCCAGCTGCATTGTGATCTCCACGGCGGCGACGGAGTCACCTAGTGCAG”, the figure is 3790 fluorescence intensity (a.u.); as for “ACATGTGGGCCAGCAGCCCAGCACGTGTCTTCCCCTGTTGCGGAGTCACCTAGTGCAG”, 5970 fluorescence intensity (a.u.); as for “CTTTTATGGGCGTGGGCCCTACGCGTGTGCGCACGAGGAGCGGAGTCACCTAGTGCAG”, 3280 fluorescence intensity (a.u.).

“GAGGAGGAGGAGGCTGATGTGGCAGCCTGACATGTGGGGCCGGAGTCACCTAGTGCAG”: the binding signal is 7020 fluorescence intensity (a.u.). As for “TTCCAGACGCGTCACCACTCTTCACCCACCATTCCAGTGCCGGAGTCACCTAGTGCAG”, the figure is 8520 fluorescence intensity (a.u.); as for “CGCCGGAGACGCCATTGCCGTGATCTGGTGGTGGTTACCTCGGAGTCACCTAGTGCAG”, 4090 fluorescence intensity (a.u.). With “CTCTGCCTCTGCTCCGGCCTCCACGCCCCATCGCCGCCGCCGGAGTCACCTAGTGCAG”, the binding signal was 3180 fluorescence intensity (a.u.).

In the case of “TCGAAGTGGTATTCCGATGATCTCACGCGGCCACGCTCCCCGGAGTCACCTAGTGCAG”, the binding signal was 3260 fluorescence intensity (a.u.). Turning to “TTGCATCGTGGGCTTAGCGTCACGCCGAAGTGACCCCTCACGGAGTCACCTAGTGCAG”, the binding signal is 5290 fluorescence intensity (a.u.). For “GCGTTTTCGGCGGGGAACGCGGGGAGGCGGGTGGGGTTGACGGAGTCACCTAGTGCAG”, the binding signal was 4290 fluorescence intensity (a.u.).
